{"source": "PubChem BioAssay AID652243 | Drosophila RNAi Screening Center, 2013", "screen": "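Knock-downs that decrease or increase androgen receptor reporter signal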 (primary screen)", "system": "Drosophila S2R+ cells", "reagent": "long dsRNA against Drosophila genes", "timing": "72 h (48 h, then 24 h hormone)", "conditions": "synthetic androgen R1881 at 10 nM for 24 h", "detection": "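Per-well raw luminescence of the androgen-driven firefly reporter and of the Renilla control, two replicates each, without normalisation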", "direction": "firefly reporter light: higher = more light from androgen-responsive reporter; Renilla control light: higher = more constitutive control signal (cell number, transfection)", "active means": "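Hit when the log firefly-to-Renilla ratio dropped or increased by a fixed fold versus the mean of GFP or LacZ controls across duplicate plates; lowering cut given as 1.5 and as 3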", "meaning of the calls": "active = hit: reporter lowered or raised; inactive = no hit", "note": "The screen tested about 24,000 reagents; this is an unselected part of those that have a named target and a result. In the full data, 246 (1%) are marked active. 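Plates not normalised; calls are printed but the firefly/Renilla ratio behind them is not deposited; fold cut for lowering reported inconsistently.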 Raw values are not corrected between plates. Unmarked entries are inactive. Names joined by + are all predicted targets of the reagent. The record does not give: the amount of reagent."}
{"target gene":"825-Oak + CG32214 + CG32213","DRSC id":"DRSC27977","firefly reporter light, replicate 1":6.21e5,"firefly reporter light, replicate 2":4.38e5,"Renilla control light, replicate 1":2.29e6,"Renilla control light, replicate 2":1.58e6}
{"target gene":"CG4480","DRSC id":"DRSC02750","firefly reporter light, replicate 1":1.63e5,"firefly reporter light, replicate 2":1.24e5,"Renilla control light, replicate 1":1.77e6,"Renilla control light, replicate 2":1.57e6}
{"target gene":"CG14837","DRSC id":"DRSC10207","firefly reporter light, replicate 1":1.32e5,"firefly reporter light, replicate 2":1.36e5,"Renilla control light, replicate 1":1.59e6,"Renilla control light, replicate 2":1.46e6}
{"target gene":"Cht7","DRSC id":"DRSC08538","firefly reporter light, replicate 1":1.27e6,"firefly reporter light, replicate 2":1.32e6,"Renilla control light, replicate 1":1.66e6,"Renilla control light, replicate 2":1.84e6}
{"target gene":"Cht7","DRSC id":"DRSC21783","firefly reporter light, replicate 1":4.81e5,"firefly reporter light, replicate 2":5.71e5,"Renilla control light, replicate 1":1.72e6,"Renilla control light, replicate 2":2.28e6}
{"target gene":"Sec16","DRSC id":"DRSC19788","firefly reporter light, replicate 1":7.82e5,"firefly reporter light, replicate 2":3.98e5,"Renilla control light, replicate 1":3.20e6,"Renilla control light, replicate 2":2.93e6}
{"target gene":"Tbce","DRSC id":"DRSC04897","firefly reporter light, replicate 1":8.87e5,"firefly reporter light, replicate 2":7.06e5,"Renilla control light, replicate 1":2.07e6,"Renilla control light, replicate 2":1.69e6}
{"target gene":"CG4830","DRSC id":"DRSC15657","firefly reporter light, replicate 1":1.25e5,"firefly reporter light, replicate 2":1.87e5,"Renilla control light, replicate 1":2.33e6,"Renilla control light, replicate 2":2.06e6}
{"target gene":"nAChRalpha1","DRSC id":"DRSC13664","firefly reporter light, replicate 1":4548,"firefly reporter light, replicate 2":11376,"Renilla control light, replicate 1":23591,"Renilla control light, replicate 2":33471}
{"target gene":"nAChRalpha1","DRSC id":"DRSC13670","firefly reporter light, replicate 1":"18958 (active)","firefly reporter light, replicate 2":12763,"Renilla control light, replicate 1":1.05e5,"Renilla control light, replicate 2":1.35e5}
{"target gene":"nAChRalpha1","DRSC id":"DRSC13672","firefly reporter light, replicate 1":1.18e5,"firefly reporter light, replicate 2":58979,"Renilla control light, replicate 1":1.50e5,"Renilla control light, replicate 2":1.24e5}
{"target gene":"nAChRalpha1","DRSC id":"DRSC17008","firefly reporter light, replicate 1":1.86e5,"firefly reporter light, replicate 2":2.58e5,"Renilla control light, replicate 1":3.07e6,"Renilla control light, replicate 2":2.94e6}

2 of these entries, reformatted:
target gene | DRSC id | firefly reporter light, replicate 1 | firefly reporter light, replicate 2 | Renilla control light, replicate 1 | Renilla control light, replicate 2
nAChRalpha1 | DRSC13670 | 18958 (active) | 12763 | 1.05e5 | 1.35e5
nAChRalpha1 | DRSC13672 | 1.18e5 | 58979 | 1.50e5 | 1.24e5
